The inconclusive results got no clear call from the source; some entries with a clear call stand among them for comparison. For some of these results: Potencies beside an inconclusive call are fits to weak or partial responses and may not hold up. The source made the active and inactive calls. The call rests on the fitted dose curve; in most records, active means well fitted cell-killing curve with a large enough effect; inconclusive means small, poorly fitted or top-dose-only effect, or effect the other way; inactive means no such curve, though single readings can be large or run the other way.
What was measured:
[1] = Quantitative High-Throughput drug screen in 47 multiple myeloma cell lines against the NCATS MIPE library collection: L363_DSMZ cell viability assay (AID 1918984); conditions: L363 myeloma viability, CellTiter-Glo ATP luminescence, 48 h; viability (% of control): at 45.8 µM (top of the series); further: nearly all actives have a fitted effect of over 40% in size
In short: (§1)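 qHTS format: cells plated (500/well), pin-dosed with MIPE 4.0 compounds, kept 48 h at 37 °C. Readout was CellTiter-Glo luminescence, median RLU.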

[2] = Quantitative High-Throughput drug screen in 47 multiple myeloma cell lines against the NCATS MIPE library collection: KMS34_JCRB cell viability assay (AID 1918985); conditions: KMS34 myeloma viability, CellTiter-Glo ATP luminescence, 48 h; series mostly up to 45.8 µM; further: nearly all actives have a fitted effect of over 40% in size
In short: as §1

[3] = Quantitative High-Throughput drug screen in 47 multiple myeloma cell lines against the NCATS MIPE library collection: OCIMY7_PLB cell viability assay (AID 1918987); conditions: OCI-MY7 myeloma viability, CellTiter-Glo ATP, 48 h; viability (% of DMSO): at 45.8 µM (top of the series); further: nearly all actives have a fitted effect of over 65% in size
In short: as §1

[4] = Quantitative High-Throughput drug screen in 47 multiple myeloma cell lines against the NCATS MIPE library collection: OCIMY5_PLB cell viability assay (AID 1918988); conditions: OCI-MY5 myeloma viability, ATP luminescence, 48 h; series mostly up to 45.8 µM; further: nearly all actives have a fitted effect of over 65% in size
In short: as §1

[5] = Quantitative High-Throughput drug screen in 47 multiple myeloma cell lines against the NCATS MIPE library collection: OPM1_PLB cell viability assay (AID 1918989); conditions: CellTiter-Glo, 48 h; series mostly up to 45.8 µM; further: nearly all actives have a fitted effect of over 40% in size
In short: as §1

[6] = Quantitative High-Throughput drug screen in 47 multiple myeloma cell lines against the NCATS MIPE library collection: U266_ATCC cell viability assay (AID 1919864); conditions: U266 myeloma viability, CellTiter-Glo ATP luminescence, 48 h; viability (% of DMSO control): at 45.8 µM (top of the series); further: nearly all actives have a fitted effect of over 35% in size;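 on viability (% of DMSO control): 0% = media-only wells without cells and 100% = DMSO-only wells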
In short: as §1

[7] = Quantitative High-Throughput drug screen in 47 multiple myeloma cell lines against the NCATS MIPE library collection: XG6_PLB cell viability assay (AID 1919865); conditions: XG6 myeloma viability, CellTiter-Glo ATP luminescence, 48 h; viability (% of control): at 45.8 µM (top of the series); further: nearly all actives have a fitted effect of over 40% in size;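 on viability (% of control): 100% = DMSO-only wells and 0% = media-only wells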
In short: as §1

[8] = Quantitative High-Throughput drug screen in 47 multiple myeloma cell lines against the NCATS MIPE library collection: XG1_PLB cell viability assay (AID 1919866); conditions: CellTiter-Glo ATP, 48 h; viability: at 45.8 µM (top of the series); further: nearly all actives have a fitted effect of over 35% in size
In short: as §1

[9] = Quantitative High-Throughput drug screen in 47 multiple myeloma cell lines against the NCATS MIPE library collection: VP6_DJ cell viability assay (AID 1919867); conditions: ATP luminescence, 48 h; viability (% of DMSO): at 45.8 µM (top of the series); further: nearly all actives have a fitted effect of over 40% in size;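 on viability (% of DMSO): 100% = DMSO-only wells and 0% = wells with media alone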
In short: as §1

[10] = Quantitative High-Throughput drug screen in 47 multiple myeloma cell lines against the NCATS MIPE library collection: UTMC2_PLB cell viability assay (AID 1919868); conditions: CellTiter-Glo ATP luminescence, 48 h; viability (% of DMSO control): at 45.8 µM (top of the series); further: nearly all actives have a fitted effect of over 55% in size;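 on viability (% of DMSO control): 100% = DMSO-only wells and 0% = media-only wells without cells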
In short: as §1

[11] = Quantitative High-Throughput drug screen in 47 multiple myeloma cell lines against the NCATS MIPE library collection: PE2_PLB cell viability assay (AID 1919869); conditions: PE2_PLB myeloma cells viability, ATP luminescence, 48 h; viability (% of control): at 45.8 µM (top of the series); further: nearly all actives have a fitted effect of over 35% in size;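 on viability (% of control): 100% = DMSO-only wells and 0% = cell-free media-only wells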
In short: as §1

[12] = Quantitative High-Throughput drug screen in 47 multiple myeloma cell lines against the NCATS MIPE library collection: PCM6_Riken cell viability assay (AID 1919870); conditions: CellTiter-Glo ATP, 48 h; series mostly up to 45.8 µM; further: nearly all actives have a fitted effect of over 30% in size;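 on viability (% of control): 100% = DMSO-only wells and 0% = media-only wells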
In short: as §1

[13] = Quantitative High-Throughput drug screen in 47 multiple myeloma cell lines against the NCATS MIPE library collection: KMS11_JCRBsus cell viability assay (AID 1919873); conditions: KMS11 myeloma viability, CellTiter-Glo ATP luminescence, 48 h; series mostly up to 45.8 µM; further: nearly all actives have a fitted effect of over 50% in size
In short: as §1

[14] = Quantitative High-Throughput drug screen in 47 multiple myeloma cell lines against the NCATS MIPE library collection: KMS28BM_JCRB cell viability assay (AID 1919874); conditions: CellTiter-Glo ATP, 48 h; series mostly up to 45.8 µM; further: nearly all actives have a fitted effect of over 35% in size
In short: as §1

[15] = Quantitative High-Throughput drug screen in 47 multiple myeloma cell lines against the NCATS MIPE library collection: OPM2_DSMZ cell viability assay (AID 1919872); conditions: OPM2 myeloma viability, CellTiter-Glo ATP luminescence, 48 h; series mostly up to 45.8 µM; further: nearly all actives have a fitted effect of over 30% in size
In short: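 qHTS of the MIPE 4.0 collection: 500 myeloma cells/well, 48 h drug exposure at 37C in 5% CO2, then CellTiter-Glo for 5 min at room temperature before luminescence reading.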

[16] = Quantitative High-Throughput drug screen in 47 multiple myeloma cell lines against the NCATS MIPE library collection: SKMM1_PLB cell viability assay (AID 1919863); conditions: SKMM1 myeloma viability, CellTiter-Glo ATP, 48 h; viability: stronger effect = lower value; further: nearly all actives have a fitted effect of over 35% in size
In short: as §1

[17] = Quantitative High-Throughput drug screen in 47 multiple myeloma cell lines against the NCATS MIPE library collection: RPMI8226_ATCC cell viability assay (AID 1919871); conditions: RPMI8226 myeloma viability, CellTiter-Glo ATP luminescence, 48 h; viability (% of control): at 45.8 µM (top of the series); further: nearly all actives have a fitted effect of over 30% in size
In short: as §1
Potency means the concentration at half of the fitted maximal effect.

C#C[C@]1(O)C=C[C@@H]2[C@@H]3CCC4=CC(=O)CC[C@@H]4[C@H]3CC[C@@]21CC
inactive: Potency [2] | Potency [12] | Potency [14]
inconclusive: Potency [1] 59 nM [rising, full curve, poor fit] | Potency [3] 29600 nM [cytotoxic, partial curve, poor fit] | Potency [4] 4.2 nM [rising, full curve, poor fit] | Potency [5] 3 nM [rising, full curve, poor fit] | Potency [6] 14.8 nM [rising, full curve, poor fit] | Potency [7] 33200 nM [cytotoxic, single point] | Potency [8] 26400 nM [cytotoxic, single point] | Potency [9] 33200 nM [cytotoxic, single point] | Potency [10] 7430 nM [cytotoxic, partial curve, poor fit] | Potency [11] 4.7 nM [rising, full curve, poor fit] | Potency [13] 18700 nM [cytotoxic, partial curve]

COC1=CC(C)=C[C@@H](C)[C@@H](O)[C@@H](C)CC(C)=CC=C[C@H](OC)[C@H]([C@@H](C)[C@@H](O)[C@H](C)[C@@]2(O)C[C@@H](O)[C@H](C)[C@@H](C(C)C)O2)OC1=O
active: Potency [14] 20900 nM
inconclusive: viability (% of control) [1] 4.68% [cytotoxic] | viability (% of DMSO) [3] 6.29% [cytotoxic] | Potency [4] 20900 nM [cytotoxic, partial curve, poor fit] | Potency [6] 4.7 nM [cytotoxic, full curve, poor fit] | viability [8] 2.79% [cytotoxic] | viability (% of DMSO) [9] 5.3% [cytotoxic] | Potency [15] 469 nM [cytotoxic, partial curve, poor fit]

CC(N[C@H]1C[C@H]1c1ccccc1)c1ccc2c(c1)OCCO2 (stereo partly specified)
active: Potency [6] 14800 nM
inactive: Potency [11] | Potency [15] | Potency [14]
inconclusive: Potency [1] 9350 nM [cytotoxic, single point] | Potency [2] 1320 nM [cytotoxic, full curve, poor fit] | Potency [3] 26.4 nM [cytotoxic, full curve, poor fit] | Potency [16] 118 nM [cytotoxic, full curve, poor fit] | Potency [9] 37200 nM [cytotoxic, single point] | Potency [10] 2640 nM [cytotoxic, full curve, poor fit] | Potency [12] 37200 nM [cytotoxic, single point]

Fc1ccc(C(OCCN2CCN(CCCc3ccccc3)CC2)c2ccc(F)cc2)cc1
active: Potency [12] 10500 nM | Potency [15] 23500 nM | Potency [13] 11800 nM
inconclusive: Potency [2] 33200 nM [cytotoxic, single point] | Potency [6] 29600 nM [cytotoxic, single point] | Potency [10] 13200 nM [cytotoxic, partial curve, poor fit]
inactive: Potency [1]

C[C@@H]1CC[C@@]2(OC1)O[C@H]1C[C@H]3[C@@H]4CC=C5C[C@@H](O[C@@H]6O[C@H](CO)[C@@H](O[C@@H]7O[C@@H](C)[C@H](O)[C@@H](O)[C@@H]7O)[C@H](O)[C@@H]6O[C@@H]6O[C@@H](C)[C@H](O)[C@@H](O)[C@@H]6O)CC[C@]5(C)[C@@H]4CC[C@]3(C)[C@@H]1[C@H]2C
active: Potency [2] 1870 nM | Potency [5] 2960 nM | Potency [10] 2640 nM | Potency [17] 2350 nM
inconclusive: Potency [6] 4690 nM [cytotoxic, full curve, poor fit]

C1=C2CCCN[C@H]2[C@@H]2C[C@H]1[C@@H]1CCCCN1C2
inactive: Potency [2] | Potency [3] | Potency [4] | viability [16] 99.4% | Potency [7] | Potency [10] | Potency [12] | Potency [14]
inconclusive: Potency [9] 93.5 nM [cytotoxic, full curve, poor fit]

Cc1[nH]nc2ccc(-c3cncc(OC[C@@H](N)Cc4c[nH]c5ccccc45)c3)cc12
inactive: Potency [1]
active: Potency [2] 1320 nM | Potency [4] 833 nM | Potency [11] 935 nM | Potency [12] 264 nM | Potency [14] 296 nM

O=c1[nH]c2ccccc2n1C1CCN(Cc2ccc(-c3[nH]c4cc5ncnc5cc4nc3-c3ccccc3)cc2)CC1
inconclusive: Potency [2] 20900 nM [cytotoxic, partial curve] | Potency [6] 33200 nM [cytotoxic, single point]
active: Potency [7] 7430 nM | Potency [10] 13200 nM | Potency [15] 18700 nM | Potency [14] 18700 nM

Cc1cccc(C)c1NC(=O)CN1CCCC1=O
inconclusive: Potency [5] 418 nM [cytotoxic, full curve, poor fit] | Potency [6] 935 nM [cytotoxic, full curve, poor fit] | Potency [8] 23500 nM [cytotoxic, partial curve, poor fit] | Potency [9] 3320 nM [cytotoxic, full curve, poor fit] | Potency [10] 33200 nM [cytotoxic, single point]
inactive: Potency [1] | Potency [2] | Potency [3] | Potency [4]

CN1C(=O)COc2c(C(=O)NC3CN4CCC3CC4)cc(Cl)cc21 (stereo unspecified)
inactive: Potency [6] | Potency [7] | Potency [8] | Potency [15]
inconclusive: Potency [1] 83.3 nM [cytotoxic, full curve, poor fit] | Potency [2] 14800 nM [cytotoxic, partial curve, poor fit] | Potency [3] 148 nM [rising, full curve, poor fit] | Potency [4] 1180 nM [cytotoxic, full curve, poor fit] | viability (% of DMSO control) [10] 144% [cytotoxic] | Potency [11] 37.2 nM [rising, full curve, poor fit] | Potency [13] 26400 nM [cytotoxic, single point] | Potency [14] 37200 nM [cytotoxic, single point]

CC(C)(C)[C@]1(O)C[C@@H]2OC(=O)C[C@@]23C(=O)O[C@@H]2OC(=O)[C@H](O)C213 (stereo partly specified)
inactive: Potency [2] | Potency [4] | Potency [6] | Potency [7] | Potency [12] | Potency [14]
inconclusive: Potency [1] 235 nM [cytotoxic, full curve, poor fit] | Potency [3] 20900 nM [cytotoxic, partial curve, poor fit] | Potency [16] 6.6 nM [rising, full curve, poor fit] | Potency [8] 1 nM | Potency [9] 14.8 nM [rising, full curve, poor fit] | Potency [10] 833 nM [rising, full curve, poor fit] | Potency [11] 372 nM [cytotoxic, full curve, poor fit]

C[C@@]12OC(=O)[C@]1([C@@H](O)[C@@H]1C=CCCC1)NC(=O)[C@H]2CCCl
active: Potency [3] 1 nM | Potency [16] 105 nM | Potency [9] 1 nM | Potency [10] 23.5 nM
inconclusive: viability (% of control) [7] 3.75% [cytotoxic] | viability [8] 3.43% [cytotoxic]

Reference: PubChem BioAssay (NCATS)
